A short description of the test: qHTS Assay for Lipid Storage Modulators in Drosophila S3 Cells.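 For cell number change: cells counted by Cell Tracker Red CMTPX staining in the red channel.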 The settings on record: BODIPY lipid droplet fluorescence, 18-24 h; for cell number change: measured here: cell count max response, cells fed with added oleic acid. In a few lines: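 Drosophila S3 cells loaded with oleic acid (400 uM, as added) and compounds at several concentrations; lipid droplets imaged by 488-nm laser-scanning cytometry, 500–530 nm intensity and object ratio to cell channel. Percent activity normalized to 20 uM Triacsin C.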

Setting [1] is: measured here: cell number channel AC50, cells fed with added oleic acid.
Setting [2] is: measured here: lipid fluorescence (Fed channel) AC50, cells fed with added oleic acid.

The structures appear in SMILES notation. This is one part of the list. Further columns of the screen follow, without active or inactive calls. The list favours compounds with an active or inconclusive main result. Potencies come from curve fits of mixed quality, noted in brackets.

Consider `CN(CC(=O)Nc1cccc(S(=O)(=O)N2CCCC2)c1)CC(=O)Nc1ccc(Cl)c(C(F)(F)F)c1`, for which the cell number change is -40.9%. Further, the AC50 (in general, the concentration giving half of the maximal activity seen) under setting [1] is 10.3 µM [falling, partial curve]. Further, under setting [2], the AC50 is 1.46 µM [falling, partial curve]. As for `CC(=O)OC1c2ccccc2C(=O)N1c1ccccc1C` (stereo unspecified), the cell number change came out at 8.31%. Moreover, the AC50 under setting [2] is 3.26 µM [rising, full curve].

For `CC1=NN(C(=O)c2ccc(Br)cc2)C(O)(c2ccccc2)C1` (stereo unspecified), the cell number change was determined as 33.3%. For the same molecule, the AC50 under setting [1] was 29.1 µM [rising, single point]. Moreover, the AC50 under setting [2] was 29.1 µM [rising, single point]. As for `C=C(C)CNC(=S)Nc1cccc(N)n1`, the cell number change was 8%. The AC50 under setting [1] is 6.51 µM [falling, single point]. `Cc1ccc(/C=N/NC(=O)c2ccccc2OCc2cccc(Br)c2)o1`: the cell number change is 40%. In addition, under setting [1], the AC50 was 0.0058 µM [rising, full curve, poor fit]. In addition, under setting [2], the AC50 is 2.06 µM [rising, partial curve]. As to `Cc1ccc(Nc2cc(C)nc3nc(C)nn23)cc1`, the cell number change is 18.4%. The AC50 under setting [2] was 1.16 µM [rising, partial curve]. For the molecule `Cc1nnc(NC(=O)CCn2c(=O)oc3ccc(Cl)cc32)s1`, the cell number change is -6.49%. Further, the AC50 under setting [2] is 29.1 µM [rising, single point]. Turning to `COc1ccccc1NC(=O)/C(=C/c1ccncc1)NC(=O)c1ccccc1`, the cell number change came out at 4.2%. For the same molecule, the AC50 under setting [2] was 6.51 µM [rising, single point]. `Cc1cc(NC(=O)CSc2ccc3nnc(-c4cccnc4)n3n2)no1`: the cell number change came out at 1.15%. The concentration at half-maximal activity (AC50) under setting [2] was 0.411 µM [rising, partial curve, poor fit]. Turning to `COc1ccc(-n2ncc3c2CC(C)(C)CC3NC(=O)CCC2=NNC(=O)CC2)cc1` (stereo unspecified), the cell number change worked out at 5.67%. In the case of `Cc1ccnc(NC(=O)C2CCN(S(=O)(=O)c3cccc(C(F)(F)F)c3)CC2)c1`, the cell number change amounted to 8.95%. The AC50 under setting [2] is 0.517 µM [rising, full curve, poor fit]. With `COC(=O)C1CC(O)CN1S(=O)(=O)c1cccs1` (stereo unspecified), the cell number change amounted to 87.9%. Besides, the AC50 under setting [1] was 29.1 µM [rising, partial curve, poor fit]. Further, under setting [2], the AC50 is 0.164 µM [rising, full curve, poor fit]. Turning to `CCNC(=O)COC(=O)CCC(=O)c1cccs1`, the cell number change came to 131%. Further, under setting [1], the AC50 was 29.1 µM [rising, single point]. Besides, under setting [2], the concentration at half-maximal activity (AC50) was 29.1 µM [rising, single point]. Take `COc1ccc(/C=C(\C#N)C(=O)OCC(=O)Nc2ccc(C(C)(C)C)cc2)cc1`: the cell number change amounted to 4.3%. In addition, the concentration at half-maximal activity (AC50) under setting [2] is 0.411 µM [falling, full curve]. Turning to `Cc1ccc(C#N)c(SCc2ccccc2[N+](=O)[O-])n1`, the cell number change is 11.4%. Also, the AC50 under setting [2] was 29.1 µM [rising, single point]. With `O=C(Nc1cccc2ccccc12)c1ccc(Br)o1`, the cell number change was found to be 9.06%. In addition, the concentration at half-maximal activity (AC50) under setting [2] was 3.66 µM [rising, partial curve, poor fit]. As to `CCCCn1c(N)c(NCc2ccccc2)c(=O)[nH]c1=O`, the cell number change came to 15.1%. Further, under setting [2], the AC50 is 10.3 µM [rising, partial curve]. With `CCc1nc(SCC(=O)N2c3ccccc3Sc3ccccc32)c2ccccc2n1`, the cell number change was determined as 8.2%. Regarding `O=C(CSc1nccc(=O)[nH]1)Nc1ccc(Oc2ccccc2)cc1`, the cell number change is 12.6%. Besides, the AC50 under setting [2] is 29.1 µM [rising, single point]. Consider `CC(=O)Nc1ccc(NC(=S)Nc2ccccc2)cc1`, for which the AC50 under setting [1] was 6.51 µM [falling, single point]. `O=P(c1ccccc1)(c1ccccc1)C(O)c1ccc(Br)cc1` (stereo unspecified): the cell number change was found to be 15%. Further, the AC50 under setting [2] was 0.116 µM [falling, full curve, poor fit]. With `CCOCCCNCC(=O)Nc1ccccc1N1CCOCC1`, the cell number change is -5.3%. Further, the AC50 under setting [2] is 0.517 µM [falling, full curve, poor fit]. As to `Cn1cccc1-c1cc(C(=O)N/N=C/c2ccc(Cl)cc2)[nH]n1`, the AC50 under setting [2] is 32.6 µM [rising, partial curve, poor fit]. In the case of `COc1cc(C)ccc1OCc1cc(C(=O)NCCN2CCOCC2)no1`, the cell number change was 4.95%. Turning to `COCCOC1CCN(C(=O)c2cc(COc3ccc(-n4cncn4)cc3)on2)CC1`, the cell number change stood at 54.5%. In the case of `CCC(=O)N(Cc1ccc2c(c1)OCO2)Cc1cc2cc(OC)ccc2[nH]c1=O`, the AC50 under setting [2] is 29.1 µM [falling, single point].

As to `C=CCn1c(COc2cccc3ccc(C)nc23)nnc1SCC(=O)O`, the cell number change is -30.6%. In addition, the AC50 under setting [1] was 32.6 µM [falling, single point]. Moreover, under setting [2], the AC50 is 29.1 µM [falling, partial curve].

For the molecule `CCOc1ccccc1NC(=O)Cn1c(C)cc(COC)c(C#N)c1=O`, the cell number change is 30.5%. Under setting [1], the AC50 was 0.103 µM [rising, partial curve]. The half-maximal activity concentration (AC50) under setting [2] is 0.0517 µM [rising, partial curve, poor fit]. For the molecule `O=C(NCc1cccnc1)c1ccc(NC(=O)c2ccco2)cc1`, the cell number change was 6.39%. Further, under setting [2], the concentration at half-maximal activity (AC50) is 18.4 µM [rising, partial curve]. Take `COC(=O)C1C(=O)c2c([nH]c(C(=O)OC3CCCC3C)c2C)CC1C` (stereo unspecified): the cell number change was -70%. Further, under setting [2], the AC50 is 29.1 µM [falling, single point].

As to `COc1ccc(NC(=O)c2cc3c(Cl)nc4ccccc4c3s2)cc1OC`, the cell number change was -33.1%. Moreover, the AC50 under setting [1] is 6.51 µM [falling, full curve, poor fit]. Further, under setting [2], the AC50 was 0.103 µM [rising, full curve].

As for `C=CCN(CC=C)Cc1nc(N)nc(Nc2ccccc2C)n1`, the cell number change is -2.57%.

As for `CCN(CC(=O)NCc1cccs1)C(=O)COc1ccc(C(C)=O)cc1`, the cell number change is -6.98%. The AC50 under setting [2] is 6.51 µM [rising, partial curve, poor fit]. Consider `COc1ccc(-c2nnc(SCc3cc(C)ccc3C)n2N)cc1`, for which the cell number change was -27.2%. Also, under setting [2], the half-maximal activity concentration (AC50) is 32.6 µM [falling, single point]. Consider `COc1ccc(OCC(=O)Nc2ccncc2)cc1`, for which the cell number change is -17.9%.

Consider `O=C(Oc1cc2oc(=O)c3c(c2cc1Cl)CCCC3)c1ccco1`, for which the cell number change was -103%. Also, the AC50 under setting [1] was 25.9 µM [falling, partial curve]. Also, the half-maximal activity concentration (AC50) under setting [2] is 0.092 µM [falling, full curve, poor fit]. Regarding `COCCCNc1nc(N)c([N+](=O)[O-])c(NC2CCCCC2)n1`, the cell number change was -14.4%.

`COc1ccc(NC(=O)C2CCN(C(=O)C3CC(=O)N(c4ccc(C)cc4)C3)CC2)c(OC)c1` (stereo unspecified): the cell number change is -26.7%. Turning to `COC(=O)c1nnn(-c2nonc2N)c1COc1ccc(C=O)cc1OC`, the cell number change came to 0.0563%. The AC50 under setting [2] is 0.164 µM [rising, full curve, poor fit].
